At least one peptide structure holds a part that was inferred or is arguable (an end, a ring closure or a residue). Square brackets hold non-standard residues; d marks the D form. Ends that are not written are not given here.
Legend:
[1] = system: T47D breast cancer cells; assay: Viability of T47D breast cancer cells; assay type: cell-based; settings: FOXO4 DRI alone
[2] = system: IF-6; assay: Viability of IF-6 metastatic melanoma cells; assay type: cell-based; settings: FOXO4 DRI alone
[3] = system: LOX-IMVI; assay: Longitudinal cell density (xCELLigence) of LOX-IMVI; assay type: cell-based, human; settings: Vemurafenib and FOXO4 DRI combined
[4] = system: senescent and non-senescent IMR90 fibroblasts; assay: Real-time cell density, xCELLigence, senescent and non-senescent IMR90 fibroblasts; assay type: cell-based, human
Procedure: Measurements continued for the indicated time-points. […] Experiment as in FIG. 2K.
Cell density after time of plating was followed. […] NQDI is apparently rather safe even at high doses as as non-senescent cells are not affected by 20 uM NQDI.

[5] = system: Malme-3M; assay: Viability of Malme-3M metastatic melanoma cells; assay type: cell-based, human; settings: FOXO4 DRI alone
[6] = system: Ser-15-phosphorylated p53; assay: Staining for Ser-15-phosphorylated p53 foci in senescent IMR90; assay type: cell-based, human; settings: 25 μM with QVD-OPH, senescent IMR90, day 5
[7] = system: Wi-38; assay: Cell viability of senescent and control Wi-38 cells; assay type: cell-based, human; settings: 12.5 μM
[8] = system: ME157; assay: Viability of ME157 metastatic melanoma cells; assay type: cell-based; settings: FOXO4 DRI alone
[9] = system: GL261 glioblastoma cells; assay: Radiation-resistant GL261 glioblastoma cells; assay type: cell-based; settings: 8Gy irradiation combined with FOXO4 DRI
[10] = system: LOX-IMVI; assay: Apoptosis by Cytochrome C release in LOX-IMVI; assay type: cell-based, human; settings: FOXO4 DRI with Vemurafenib, with QVD-OPH, day 5
[11] = system: p16^ink4a-positive senescence; assay: Doxorubicin-induced senescence in p16::3MR mice (RLUC bioluminescence, SA-beta-GAL); assay type: in vivo, mouse
Procedure: IMR90 cells were exposed twice to 0.5 μM Doxorubicin with one day in between. SA-β-GAL activity was determined 7 days later. […] This figure complements FIG. 4A+B by showing that next to the senescence markers SA-β-Gal and p16^ink4a also the SASP marker IL-6 is elevated by Doxorubicin. […] Mice were i.p. injected with 10 mg/kg Doxorubicin and analyzed for RLUC on the indicated time-points. Changes in RLUC intensity for 5 animals are plotted for the indicated timepoints after injection. […] Following one dose of Doxorubicin (10 mg/kg, i.p.) the mice were treated with FOXO4 DRI (n=6; 4×10 mg/kg i.v.) or PBS (n=4; 4× Mock) and processed for RLUC imaging after 14 d. […] Mice treated as indicated in FIG. 4F were analyzed for Bioluminescence. […] H) To improve the window for measuring healthspan changes, the treatment regime from FIG. 4F) was extended with one additional dose of Doxorubicin and milder FOXO4 DRI treatment. Following two doses of Doxorubicin (both 10 mg/kg i.p.) the mice (n=3 each group) were subsequentially treated with PBS or FOXO4 DRI (3×5 mg/kg, 1 d in between) and 14 d later analyzed for changes in healthspan. […] Post-mortem analysis of liver sections from mice (n=2 each group) treated as in FIG. 4H and stained for FOXO4. The number of FOXO4 foci was objectively quantified using ImageJ. […] Mice treated as depicted in FIG. 4H (n=9 for PBS, n=11 for FOXO4 DRI) were analyzed for total body weight before and after Doxorubicin-exposure followed by treatment with PBS or FOXO4 DRI. […]
Our senescence-detection model makes use of a construct in which the promoter of p16^ink4a drives a so-called trimodality reporter (3MR) referred to as p16::3MR. […] RLUC and RFP allow visualization of senescent cells in real-time through bioluminescence and fluorescence, respectively. […] On day 0, p16::3MR mice (Demaria et al., Developmental Cell, 31:6 p. 722-733 (2014)) including the Supplemental Experimental procedures) were i.p. injected with 10 mg/kg Doxorubicin and RLUC activity as measure of senescence was determined on the indicated timepoints. […]

[12] = system: A375; assay: Viability of A375 metastatic melanoma cells (parental and Vemurafenib survivors); assay type: cell-based, human
[13] = system: p53 pSer46; assay: pSer46 p53 in senescent IMR90; assay type: cell-based, human; settings: 25 μM with QVD-OPH

## [dL][dT][dL][dR][dK][dE][dP][dA][dS][dE][dI][dA][dQ][dS][dI][dL][dE][dA][dY][dS][dQ][dN]G[dW][dA][dN][dR][dR][dS]GG[dK][dR][dP][dP][dP][dR][dR][dR][dQ][dR][dR][dK][dK][dR]G [FOXO4 DRI]
[1]
  viability: resulting in a strong loss in viability
[2]
  killing of melanoma cells: potently kills
[3]
  cell density, combination: leads to a loss in cell density
[4]; 25 uM, senescent vs non-senescent IMR90
  senescent cell density in time: selectively reduces senescent cell density in time starting at 36 hours after administration
[4]; 50 μM, senescent (10Gy IR) vs non-senescent IMR90
  cell density in time: after 36 h the FOXO4 DRI peptide selectively and gradually reduced cell density of senescent cells
[5]
  killing of melanoma cells: potently kills
[6]
  active S15-phosphorylated p53 foci in the nucleus: causes a decrease in active 15-phosphorylated p53 foci caused by its relocalization to the cytosol
[7]
  viability of senescent vs control cells: selectively reduces viability of senescent, but not control
[8]
  killing of melanoma cells: potently kills
[9]
  resensitization to radiation therapy: can be resensitized to therapy upon addition of FOXO4 DRI
[10]
  cells showing release of Cytochrome C (apoptosis), combination: strongly synergizes with Vemurafenib to induce apoptosis
[11]; Doxorubicin 10 mg/kg i.p. day 0, once daily i.v. day 11-14
  SA-beta-GAL deposits in kidneys: reduced SA-beta-GAL deposits in kidneys
[11]; Doxorubicin 10 mg/kg i.p. day 0, once daily i.v. day 11-14, imaging day 11 and day 21
  Doxorubicin-induced senescence in vivo (bioluminescence): repress Doxorubicin-induced senescence in vivo
[11]; Doxorubicin 10 mg/kg i.p., then 4×10 mg/kg i.v., RLUC imaging after 14 d
  Doxorubicin-induced p16^ink4a-driven RLUC expression: lowers Doxorubicin-induced p16^ink4a-driven RLUC expression indicative of senescence in vivo
[12]; Vemurafenib-resistant A375, combination
  resensitization to Vemurafenib: strongly resensitized these resistant lines to Vemurafenib
[12]; parental (regular) A375
  sensitivity of parental A375, drug alone: sensitive to both drugs individually
[13]
  p53 pSer46 levels: causes a strong upregulation of a p53 modification associated with apoptosis, pSer46

Reference: patent US11723947B2, “Anti-senescence compounds and uses thereof” (Erasmus University Medical Center Rotterdam, priority 2015, dated 2023)
